Record: PubChem BioAssay AID1508588 (Peter MacCallum Cancer Centre, 2020)
The deposit covers about 18,000 reagents; below is a random part of them. In the full data, 790 (4.4%) got an active call. 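Calls rest on a combination of fold-change classes in drug and vehicle arms, not all shown here.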 A number with no mark means an inactive call.

- Assay: 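Knock-downs boosting vemurafenib effects on melanoma cell growth or lactate release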 (primary screen)
- System: human WM266.4 melanoma cells (BRAF V600 mutant)
- Reagent: siRNA pool against human genes, 40 nM
- Duration: 96 h from transfection to read-out
- Treatment: vemurafenib 300 nM (about IC25), added 48 h after transfection, for 48 h; comparison arm got DMSO vehicle only
- Read-out: 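Cell gain (DAPI nuclei at end minus before drug, mean of two replicates) and medium lactate by absorbance per cell, both as ratio to non-targeting siRNA, also grouped into fold-change classes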
- Reading the numbers: cell gain with vemurafenib: higher = more cell gain than with non-targeting siRNA; lactate per cell with vemurafenib: higher = more lactate made per cell
- Active means: 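a knock-down counts as enhancing when its fold-change classes with vehicle and with vemurafenib, taken together, show a stronger drug effect on cell gain or lactate per cell; exact class pairs not stated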
- Calls: active = enhances vemurafenib effect; inactive = no enhancement seen

Gene | cell gain with vemurafenib | lactate per cell with vemurafenib
NAV1 (GeneID 89796) | 0.2 | 0.6
MYL7 (GeneID 58498) | 0.1 | 3.18
MAP3K21 (GeneID 84451) | 0.58 | 1.7
CATSPER4 (GeneID 378807) | 0.12 | 1.2
FBXO44 (GeneID 93611) | 0.31 | 0.95
PINX1 (GeneID 54984) | 0.97 | 0.38
CEACAM1 (GeneID 634) | 0.74 | 0.86
NABP2 (GeneID 79035) | 0.67 | 1.35
MS4A10 (GeneID 341116) | 0.59 | 1.46
THBD (GeneID 7056) | 0.94 | 1
GNAI2 (GeneID 2771) | 1.04 | 1.06
DPEP2 (GeneID 64174) | 0.66 | 0.97
NAPA (GeneID 8775) | -0.02 | 0.53
TMEM208 (GeneID 29100) | 0.69 | 1.38
SACK1H (GeneID 286077) | 0.52 | 1.8
MRGPRF (GeneID 116535) | 0.5 | 1.4
INHBA (GeneID 3624) | 0.79 | 0.86
LRRC19 (GeneID 64922) | 0.78 | 0.8
SEMA3F (GeneID 6405) | 0.04 | 3.75
OR10A2 (GeneID 341276) | 0.16 | 1.34
SFR1 (GeneID 119392) | 0.24 | 2.21
JAM3 (GeneID 83700) | 0.82 | 0.95
SEMA5B (GeneID 54437) | 0.74 | 1.05
MAN1C1 (GeneID 57134) | 0.64 | 1.07
ACAD9 (GeneID 28976) | 0.81 | 0.97
RNF25 (GeneID 64320) | 1.03 | 0.67
DNAH8 (GeneID 1769) | 0.37 | 1.04
PFKP (GeneID 5214) | -0.07 | 2.65
ZNF112 (GeneID 7771) | 0.57 | 2.17
OR4F5 (GeneID 79501) | 0.93 | 0.66
FASTKD3 (GeneID 79072) | 0.44 | 0.77
GINS4 (GeneID 84296) | 0.28 | 0.82
RRS1 (GeneID 23212) | 0.19 | 1.99
TNNI3 (GeneID 7137) | 0.83 | 0.88
NFKB2 (GeneID 4791) | 0.58 | 1.01
SPIN3 (GeneID 169981) | 0.17 | 0.66
HUNK (GeneID 30811) | 0.26 | 0.82
KRTAP12-2 (GeneID 353323) | 0.88 | 0.63
OR4N5 (GeneID 390437) | 0.53 | 0.92
PLA2R1 (GeneID 22925) | 0.31 | 1.35
HMGN4 (GeneID 10473) | 0.05 | 1.66
CTAG1A (GeneID 246100) | 0.54 | 1.98
OR4A15 (GeneID 81328) | 0.87 | 1.04
RAPGEF6 (GeneID 51735) | 0.41 | 1.21
AFG1L (GeneID 246269) | 0.66 | 0.28
CIART (GeneID 148523) | 0.22 | 0.92
RXRB (GeneID 6257) | 0.58 | 0.57
TBC1D29P (GeneID 26083) | 0.47 | 1.17
PPP2R2C (GeneID 5522) | 1.04 | 1.43
HAPLN1 (GeneID 1404) | 0.57 | 1.25
TBC1D32 (GeneID 221322) | 0.84 | 0.98
IMPG1 (GeneID 3617) | 0.65 | 0.86
TRIM52 (GeneID 84851) | 0.94 | 0.88
VSIG8 (GeneID 391123) | 0.79 | 1.06
PNMA3 (GeneID 29944) | 0.48 | 0.8
FBXO36 (GeneID 130888) | 0.74 | -0.2
NMRK2 (GeneID 27231) | 0.31 | 1.81
AFDN (GeneID 4301) | 0.27 | 1.42
BICRAL (GeneID 23506) | 0.81 | 0.94
SPTLC1 (GeneID 10558) | 0.06 | 0.97
RPS6KB1 (GeneID 6198) | 0.28 | 1.54
IRAG1 (GeneID 10335) | 1.07 | 1.07
PAK3 (GeneID 5063) | 0.62 | 1.32
SAMD8 (GeneID 142891) | 0.7 | 0.58
GPR32 (GeneID 2854) | 0.17 (active) | 0.54
RAB11A (GeneID 8766) | 0.8 | 0.85
KPNA1 (GeneID 3836) | 0.75 | 0.96
ASIC1 (GeneID 41) | 0.53 | 1.77
BARHL2 (GeneID 343472) | 1.22 | 0.86
ZNF101 (GeneID 94039) | 0.82 | 0.97
CD207 (GeneID 50489) | -0.01 (active) | -0.27
FAM53B (GeneID 9679) | 0.18 | 1.69
NPTN (GeneID 27020) | 0.98 | 0.56
GBA2 (GeneID 57704) | 0.47 | 1.38
LSM6 (GeneID 11157) | 0.23 | 2.32
WSCD2 (GeneID 9671) | 1.12 | 0.67
CKAP5 (GeneID 9793) | -0.07 | 0.74
TP53INP1 (GeneID 94241) | 0.83 | 0.62
PPP1R3A (GeneID 5506) | 0.76 | 0.52
RHBDL1 (GeneID 9028) | 0.74 | 0.96
OR13G1 (GeneID 441933) | -0.05 | 1.06
USE1 (GeneID 55850) | 0.8 | 0.58
TAF7 (GeneID 6879) | 0.67 | 0.92
CHST2 (GeneID 9435) | 0.7 | 1
